Test results from PMC7819943, “Rice protein-binding microarrays: a tool to detect cis-acting elements near promoter regions in rice”.
This is one part of the list.

The chains behind the UniProt entries cited, without tags or fusion partners.
UniProt Q0JBA9, entry or part of it: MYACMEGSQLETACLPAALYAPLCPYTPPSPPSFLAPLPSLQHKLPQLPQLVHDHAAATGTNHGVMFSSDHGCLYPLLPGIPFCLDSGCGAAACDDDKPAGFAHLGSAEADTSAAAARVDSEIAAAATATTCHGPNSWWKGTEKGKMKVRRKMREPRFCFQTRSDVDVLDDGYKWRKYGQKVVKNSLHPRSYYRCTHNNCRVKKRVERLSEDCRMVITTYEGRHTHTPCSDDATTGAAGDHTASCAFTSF

Each sequence was assayed against OsWRKY34 (Oryza sativa, UniProt Q0JBA9 1-250) (assay: protein-binding microarray (RPBM); PBS, 2% BSA, 51.3 ng/ul salmon testes DNA, 50 uM zinc acetate, 200 nM TF, 25 C, 1 h; high values mean tight binding). Details: protein: recombinant; tags: N-terminal polyhistidine and DsRed monomer fusion (pET32a); label: CyDye5-dUTP incorporated in the synthesized complementary strand; 3' TTTTT single-stranded linker to array surface; dsDNA, one strand shown.
Procedure, shortened: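 Binding signal is reported as fluorescence intensity per feature (arbitrary units) from an Axon 4000B scanner. Incubation used 200 nM of each Ni–NTA-purified, N-terminally polyhistidine- and DsRed-fused transcription factor from E. coli BL21-CodonPlus on a double-stranded custom Agilent array for 1 h at 25 °C, with 50 µM zinc acetate in the buffer, followed by washing.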
With “CCATGTCTCCATGTTCTGTGCCTCTGAGTTCTGAAGCTTGCGGAGTCACCTAGTGCAG” the binding signal was 9340 fluorescence intensity (a.u.).
With “CATAATATCTTCTGACTGCCACTCAAATTTTTACAAACAACGGAGTCACCTAGTGCAG” the binding signal was 9000 fluorescence intensity (a.u.).
For “ATTAAAGCTACCTCCTGTGCAGCATGTATTCATAGCCGTCCGGAGTCACCTAGTGCAG”, the binding signal was 9440 fluorescence intensity (a.u.).
“TCAACGTGGCATTCATTTTGTACTGCGCCTCTCCGGTTCGCGGAGTCACCTAGTGCAG” was tested, and the binding signal was 9660 fluorescence intensity (a.u.).
With “GATTGTCATACTATACTGCTTAAAAAATTGTTCAGCTAAACGGAGTCACCTAGTGCAG” the binding signal was 8180 fluorescence intensity (a.u.).
In the case of “CAGCGTCTGATTTTTCTCTACCCCGCCGAGCATTTTCGATCGGAGTCACCTAGTGCAG”, the binding signal is reported as 9260 fluorescence intensity (a.u.).
In the case of “TTTTATTCTTTTAGGGGTCCCACAGTTATTTTTTTTCTTTCGGAGTCACCTAGTGCAG”, the binding signal is reported as 9750 fluorescence intensity (a.u.).
In the case of “GTTTTGCACCTTATTTGACATGTATGCACTGTTGTATATTCGGAGTCACCTAGTGCAG”, the binding signal is reported as 11100 fluorescence intensity (a.u.).
“CAGCAACTCCTATCCACTAGCAGTCCAATTAATTTTCTCTCGGAGTCACCTAGTGCAG” was tested, and the binding signal was 8900 fluorescence intensity (a.u.).
With “TTTGTATGCCGTAGTTCCAGTGGTTATTATCACTTCCCTGCGGAGTCACCTAGTGCAG” the binding signal was 8100 fluorescence intensity (a.u.).
“TGCATCATGGTGGGTTTTTCTTTTTTTGGAGTTGGCAGTACGGAGTCACCTAGTGCAG” was tested, and the binding signal was 9390 fluorescence intensity (a.u.).
For “CTTTCGCAAATAGGGTTTTTAAGAGATAGTTTTCCCGCTACGGAGTCACCTAGTGCAG”, the binding signal was 8670 fluorescence intensity (a.u.).
With “ACTATAGTACATTGCAACGATTATTTTCTTTTATTTTTCGCGGAGTCACCTAGTGCAG” the binding signal was 8360 fluorescence intensity (a.u.).
In the case of “TCCTGACGCCTTCTTGCCTTGCACTTCCGCTCCGTCCATGCGGAGTCACCTAGTGCAG”, the binding signal is reported as 9410 fluorescence intensity (a.u.).
With “TTCTAGTTACTTCGTCTCCTTACACCTCTTGCAGAAAACTCGGAGTCACCTAGTGCAG” the binding signal was 8390 fluorescence intensity (a.u.).
“GGTTCTGCTTGGCGCATATGTTCTGCATGAATACAATACGCGGAGTCACCTAGTGCAG” was tested, and the binding signal was 8580 fluorescence intensity (a.u.).
With “GAATGGTCAAACACGTACTAAAAAAGTCAACGGTGTCAAACGGAGTCACCTAGTGCAG” the binding signal was 17500 fluorescence intensity (a.u.).
For “ATAACATCTGCTGCATTCATTACCTATACTTTGTAGATACCGGAGTCACCTAGTGCAG”, the binding signal was 13400 fluorescence intensity (a.u.).
In the case of “GGGAAACCAGGCTATCCTCTTGGTCACTCTGCACCAATTCCGGAGTCACCTAGTGCAG”, the binding signal is reported as 10500 fluorescence intensity (a.u.).
“TGTTTTGACTTTTGACCAATCCAATCCAAACATTAGTTCGCGGAGTCACCTAGTGCAG” was tested, and the binding signal was 9670 fluorescence intensity (a.u.).
With “CGGGGTTAATTTCAGTTGGTTTTTACTGACGACGTGCTACCGGAGTCACCTAGTGCAG” the binding signal was 8870 fluorescence intensity (a.u.).
For “TACTTACCCCTATCTTCATCATCGTCATCTGTATAACAAACGGAGTCACCTAGTGCAG”, the binding signal was 9690 fluorescence intensity (a.u.).
For “ATGGTGGGTCTTTTGCTTCTATCTTCTTCTATGCATGAAACGGAGTCACCTAGTGCAG”, the binding signal was 10400 fluorescence intensity (a.u.).
In the case of “TGTTCTACTTGGCTGTCTCATACTTTTTTTATTTCTCTCTCGGAGTCACCTAGTGCAG”, the binding signal is reported as 11200 fluorescence intensity (a.u.).
In the case of “CTCGCTAGTCGCCGGTTGTTTGCCGCCTCGGCCCGATTCCCGGAGTCACCTAGTGCAG”, the binding signal is reported as 8670 fluorescence intensity (a.u.).
In the case of “ACTTACATGCGGGCCCCACATATATATATATATAATTTTTCGGAGTCACCTAGTGCAG”, the binding signal is reported as 14400 fluorescence intensity (a.u.).
“GCTGACACACATGGGCCGTATTCTGTCCTTGGGCTTATATCGGAGTCACCTAGTGCAG” was tested, and the binding signal was 9730 fluorescence intensity (a.u.).
In the case of “AGATTTGGTTTTTTAGGCCGGTTTTTCGTTTTGTCGCCCTCGGAGTCACCTAGTGCAG”, the binding signal is reported as 8750 fluorescence intensity (a.u.).
For “GCTCTCTGATTCTTTATTTCTTATGAACACCGTAGAAATACGGAGTCACCTAGTGCAG”, the binding signal was 8220 fluorescence intensity (a.u.).
In the case of “TCTCTCGCGTCTCGCGTCTCGACCTCCTTTCCCATTCGCTCGGAGTCACCTAGTGCAG”, the binding signal is reported as 10400 fluorescence intensity (a.u.).
In the case of “ATTTGTATTTGTTTTTTTATCCGAGCTATTCGTATTTATTCGGAGTCACCTAGTGCAG”, the binding signal is reported as 9980 fluorescence intensity (a.u.).
In the case of “CCACCTCCTGTCTCGTCGCACGCGCACGCGCACGCCCTATCGGAGTCACCTAGTGCAG”, the binding signal is reported as 8390 fluorescence intensity (a.u.).
“CCAGCCTGCTGCTCCATTCCTTTCTTTTCTTTTCTTTTCCCGGAGTCACCTAGTGCAG” was tested, and the binding signal was 8260 fluorescence intensity (a.u.).
In the case of “GTGAGCTTCTGTGTTTGTTCTTTCTCGAATTATTTTTTTACGGAGTCACCTAGTGCAG”, the binding signal is reported as 13700 fluorescence intensity (a.u.).
In the case of “CCCATCCTGGCCAAGACCACACCTCGCCGTCGCCACCACCCGGAGTCACCTAGTGCAG”, the binding signal is reported as 10100 fluorescence intensity (a.u.).
In the case of “TGGGCCCTTTTCTTTGCCCTGCCCAGACTGGTTCATGTATCGGAGTCACCTAGTGCAG”, the binding signal is reported as 10100 fluorescence intensity (a.u.).
In the case of “TTTTTCTTCTTGTTTGTCGTTTTCTTGAACTTGGGGCCATCGGAGTCACCTAGTGCAG”, the binding signal is reported as 9550 fluorescence intensity (a.u.).
In the case of “CCGTGCCCACCTGAGCTCGCTTCGCCGCCATTGGCAGCCTCGGAGTCACCTAGTGCAG”, the binding signal is reported as 9100 fluorescence intensity (a.u.).
In the case of “TCTAATCTCTTGGTGGACGTCCACCCGTTTTTTCGTGTCACGGAGTCACCTAGTGCAG”, the binding signal is reported as 8070 fluorescence intensity (a.u.).
“CGTATCGGCCCAGCTTCACTCATACCGCGATAAGCTAAGACGGAGTCACCTAGTGCAG” was tested, and the binding signal was 8300 fluorescence intensity (a.u.).
For “GCTTATAGCTCACCATTATCCTTGCTCTTATGTACATATTCGGAGTCACCTAGTGCAG”, the binding signal was 9280 fluorescence intensity (a.u.).
In the case of “TGGATATCCACAGTTTGTCCTTTTATTTGGATTGTTTATCCGGAGTCACCTAGTGCAG”, the binding signal is reported as 8400 fluorescence intensity (a.u.).
